This passage reports binding results from publication PMC11873677.

The target of experiment [1] is REM34 (REproductive Meristem 34), bait of the Y2H matrix screening (Arabidopsis thaliana). Put plainly: two-hybrid; Y2H matrix screening; REM34 and REM35 in bait vector pDEST32 against a set of inflorescence transcription factors in prey vector pDEST22; performed as in Herrera-Ubaldo et al. (2023).
Experiment [2] addresses REM35 (REproductive Meristem 35), bait of the Y2H matrix screening (Arabidopsis thaliana). The description is as above.
Experiment [3] deals with REM34, GAL4 yeast two-hybrid fusion (pGBKT7) (Arabidopsis thaliana). Put plainly: yeast three-hybrid; REM35 in pTFT in Y187, mated with AH109 carrying pGADT7 and pGBKT7 vectors; medium lacking Leu, Trp, Ade and His with increasing 3-aminotriazole; 5 days at 28°C.
The target of experiment [4] is REM35 expressed from the pTFT vector (third protein of the yeast three-hybrid) (Arabidopsis thaliana). The experiment is described as above.
The target of experiment [5] is REM35, split-YFP fusion for BiFC (Arabidopsis thaliana). Put plainly: split reporter; BiFC; pYFPN43 and pYFPC43 vectors; Agrobacterium with p19 infiltrated into tobacco leaves; abaxial surfaces imaged three days after inoculation.

Results are given in words; binding and its absence hold for the method and conditions named. For some assays here: Binding calls can cover weak binding; strength is not graded here. For some assays here: Where a sequence is shown, tags or fusion partners need not be part of it. For some assays here: Binding seen in cells or lysates may run through a third protein.

B1: ARF19 (Auxin Response Factor 19), prey of the Y2H matrix screening (protein, UniProt Q8RYC8 1-1086)
chain: MKAPSNGFLPSSNEGEKKPINSQLWHACAGPLVSLPPVGSLVVYFPQGHSEQVAASMQKQTDFIPNYPNLPSKLICLLHSVTLHADTETDEVYAQMTLQPVNKYDREALLASDMGLKLNRQPTEFFCKTLTASDTSTHGGFSVPRRAAEKIFPPLDFSMQPPAQEIVAKDLHDTTWTFRHIYRGQPKRHLLTTGWSVFVSTKRLFAGDSVLFVRDEKSQLMLGIRRANRQTPTLSSSVISSDSMHIGILAAAAHANANSSPFTIFFNPRASPSEFVVPLAKYNKALYAQVSLGMRFRMMFETEDCGVRRYMGTVTGISDLDPVRWKGSQWRNLQVGWDESTAGDRPSRVSIWEIEPVITPFYICPPPFFRPKYPRQPGMPDDELDMENAFKRAMPWMGEDFGMKDAQSSMFPGLSLVQWMSMQQNNPLSGSATPQLPSALSSFNLPNNFASNDPSKLLNFQSPNLSSANSQFNKPNTVNHISQQMQAQPAMVKSQQQQQQQQQQHQHQQQQLQQQQQLQMSQQQVQQQGIYNNGTIAVANQVSCQSPNQPTGFSQSQLQQQSMLPTGAKMTHQNINSMGNKGLSQMTSFAQEMQFQQQLEMHNSSQLLRNQQEQSSLHSLQQNLSQNPQQLQMQQQSSKPSPSQQLQLQLLQKLQQQQQQQSIPPVSSSLQPQLSALQQTQSHQLQQLLSSQNQQPLAHGNNSFPASTFMQPPQIQVSPQQQGQMSNKNLVAAGRSHSGHTDGEAPSCSTSPSANNTGHDNVSPTNFLSRNQQQGQAASVSASDSVFERASNPVQELYTKTESRISQGMMNMKSAGEHFRFKSAVTDQIDVSTAGTTYCPDVVGPVQQQQTFPLPSFGFDGDCQSHHPRNNLAFPGNLEAVTSDPLYSQKDFQNLVPNYGNTPRDIETELSSAAISSQSFGIPSIPFKPGCSNEVGGINDSGIMNGGGLWPNQTQRMRTYTKVQKRGSVGRSIDVTRYSGYDELRHDLARMFGIEGQLEDPLTSDWKLVYTDHENDILLVGDDPWEEFVNCVQNIKILSSVEVQQMSLDGDLAAIPTTNQACSETDSGNAWKVHYEDTSAAASFNR
For the molecule B1, the binding entry is reported as “no binding” in experiment [1] and “binds” in experiment [2].

B2: ARF19, full-length, GAL4 yeast two-hybrid fusion (protein, UniProt Q8RYC8 1-1086)
chain: B1 chain
For B2, the binding result in experiment [3] is given as “no binding”; in experiment [4], “binds”.

B3: ARF19, split-YFP fusion for BiFC (protein, UniProt Q8RYC8 1-1086)
chain: B1 chain
B3: the binding result in experiment [5] is “binds”.
